From paper doi:10.1101/732289 (bioRxiv, 2020)
No constants are given. Whether binding was seen depends on the method and setting. Binding seen in cells or lysates may run through a third protein. A yes stands for co-enrichment or nearness to the bait. Other partners may have been found.

Chains of the proteins cited; added tags and fusions are not shown.
UniProt Q96RN5: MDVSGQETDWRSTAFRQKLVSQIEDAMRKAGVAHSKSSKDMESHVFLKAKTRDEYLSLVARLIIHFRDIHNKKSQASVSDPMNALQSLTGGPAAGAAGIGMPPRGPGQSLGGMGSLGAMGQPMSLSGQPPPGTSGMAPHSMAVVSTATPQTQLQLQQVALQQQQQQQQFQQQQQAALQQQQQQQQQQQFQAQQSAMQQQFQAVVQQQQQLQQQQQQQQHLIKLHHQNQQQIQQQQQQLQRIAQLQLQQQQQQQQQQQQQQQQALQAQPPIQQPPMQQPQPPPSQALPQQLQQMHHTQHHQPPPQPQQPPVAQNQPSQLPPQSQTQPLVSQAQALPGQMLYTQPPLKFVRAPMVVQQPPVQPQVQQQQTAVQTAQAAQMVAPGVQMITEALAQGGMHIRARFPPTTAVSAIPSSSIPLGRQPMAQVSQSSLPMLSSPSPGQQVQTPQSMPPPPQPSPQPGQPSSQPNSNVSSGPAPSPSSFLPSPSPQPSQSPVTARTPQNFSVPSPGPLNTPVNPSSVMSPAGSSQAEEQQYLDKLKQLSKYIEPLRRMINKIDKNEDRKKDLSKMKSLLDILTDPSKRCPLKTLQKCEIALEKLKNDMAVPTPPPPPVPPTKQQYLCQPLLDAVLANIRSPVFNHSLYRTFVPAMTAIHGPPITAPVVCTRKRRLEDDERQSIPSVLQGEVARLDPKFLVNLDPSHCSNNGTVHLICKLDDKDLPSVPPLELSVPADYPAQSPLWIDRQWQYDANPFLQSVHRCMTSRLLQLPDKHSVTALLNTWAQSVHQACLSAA

Biological target: DUX4 (double homeodomain transcription factor), MAC-tagged (human) (UniProt Q9UBX2)
Assay: affinity purification with mass spectrometry + proximity labelling

- binding: binds
Substance: MED15 transcriptional mediator (from UniProt Q96RN5 1-788)
